Laboratory results taken from publication doi:10.1101/2020.12.24.424330.
No constants are given. Whether binding was seen depends on the method and setting. In cells and extracts the contact can be indirect. Some entries that bind do so weakly or less than the wild type.

Amino acid sequences for entries named in this document (tags omitted). Residues count along the entry.
UniProt P10809, residues 27-573: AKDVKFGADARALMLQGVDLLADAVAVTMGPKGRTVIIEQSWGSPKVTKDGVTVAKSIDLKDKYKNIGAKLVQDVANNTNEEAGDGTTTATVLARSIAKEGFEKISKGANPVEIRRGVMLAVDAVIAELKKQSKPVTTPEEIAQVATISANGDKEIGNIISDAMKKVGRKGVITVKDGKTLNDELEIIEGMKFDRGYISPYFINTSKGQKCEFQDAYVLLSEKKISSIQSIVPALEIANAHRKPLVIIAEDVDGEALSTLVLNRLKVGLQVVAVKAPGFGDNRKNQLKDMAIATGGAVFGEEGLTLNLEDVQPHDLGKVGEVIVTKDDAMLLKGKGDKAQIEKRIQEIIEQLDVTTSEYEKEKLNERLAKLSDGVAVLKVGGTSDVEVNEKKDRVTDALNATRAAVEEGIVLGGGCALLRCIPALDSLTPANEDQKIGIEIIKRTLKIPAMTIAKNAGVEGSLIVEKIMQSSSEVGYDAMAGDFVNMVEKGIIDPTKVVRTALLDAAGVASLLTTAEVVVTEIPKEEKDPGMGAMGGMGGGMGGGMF

Target: HSP60 (human (endogenous in A375)) (UniProt P10809)
Assay: co-IP

B1: IKKβ (protein, UniProt O14920 1-756)
chain: MSWSPSLTTQTCGAWEMKERLGTGGFGNVIRWHNQETGEQIAIKQCRQELSPRNRERWCLEIQIMRRLTHPNVVAARDVPEGMQNLAPNDLPLLAMEYCQGGDLRKYLNQFENCCGLREGAILTLLSDIASALRYLHENRIIHRDLKPENIVLQQGEQRLIHKIIDLGYAKELDQGSLCTSFVGTLQYLAPELLEQQKYTVTVDYWSFGTLAFECITGFRPFLPNWQPVQWHSKVRQKSEVDIVVSEDLNGTVKFSSSLPYPNNLNSVLAERLEKWLQLMLMWHPRQRGTDPTYGPNGCFKALDDILNLKLVHILNMVTGTIHTYPVTEDESLQSLKARIQQDTGIPEEDQELLQEAGLALIPDKPATQCISDGKLNEGHTLDMDLVFLFDNSKITYETQISPRPQPESVSCILQEPKRNLAFFQLRKVWGQVWHSIQTLKEDCNRLQQGQRAAMMNLLRNNSCLSKMKNSMASMSQQLKAKLDFFKTSIQIDLEKYSEQTEFGITSDKLLLAWREMEQAVELCGRENEVKLLVERMMALQTDIVDLQRSPMGRKQGGTLDDLEEQARELYRRLREKPRDQRTEGDSQEMVRLLLQAIQSFEKKVRVIYTQLSKTVVCKQKALELLPKVEEVVSLMNEDEKTVVRLQEKRQKELWNLLKIACSKVRGPVSGSPDSMNASRLSQPGQLMSQPSTASNSLPEPAKKSEELVAEAHNLCTLLENAIQDTVREQDQSFTALDWSWLQTEEEEHSCLEQAS
For B1, the binding was “binds”.
